The list shows a part of the results.
B1: il10ra_site1_normal_mot_HHH_b2_04679_000000194_0001_21_38_H_._HHH_b1_02740_0001_0000100005_0000001_0 (protein)
chain: SSSSQEAYRLVRRAIEEAARLFREGNPEEARRLLEEALEQLEELGNFAAVFAIRNLLRALSSSSS
B2: il10ra_site1_sap_16_mot_HHH_b1_04708_000000195_0001_1_19_H_._HHH_b1_06392_0001_0000100003_0000002_0_0001_af2pred_0001 (protein)
chain: SSSDEKSRLALEAAKLSLKYLLEQGNEKVAEAAVRLAKAALELLGDEEAVEELERYFEELRSSSS
B3: il10ra_site1_normal_mot_HHH_b1_03859_af2_000000004_0001_44_57_H_._HHH_b2_05239_0001_0000100004_0000003_1_af2pred_dldesign_0_af2pred (protein)
chain: SSSSNEEARAIIRRTLEAARQIPAEEARKALAYARAMAEALGDEELLAELERVEAEIEAESSSSS
B4: il10ra_site1_sap_20_mot_HHH_b1_06804_000000054_0001_40_54_H_._HHH_b2_04909_0001_0000200021_0000001_0_0001 (protein)
chain: SSSSDRAREVYELSRRIAELLSRGDREEAEELLERARELIEELGDRLLKFILELLERQVNSSSSS
B5: il10ra_site1_normal_mot_HHH_b2_01656_000000035_0001_1_20_H_._HHH_b2_07112_0001_0000100008_0000001_0 (protein)
chain: SSSSDEEFEKVRELYKEAKELYENGNPEEAQRLLEELLRELEELGNWVRVFSVRHALRVLSSSSS
B6: il10ra_site1_sap_20_mot_HHH_b2_00297_af2_000000255_0001_43_56_H_._49a7c9051cacde34b31d84fabeb7f3ea_0001_af2_0001_0000900009_0000001_0_0001_af2pred_0001 (protein)
chain: SSSSDETEELVRILREVAELHHEGDPEEAERLLEEAEELAREAGNVIAEVIIEFLQKQLKSSSSS
B7: il10ra_site1_sap_32_mot_HHH_b1_05088_af2_000000046_0001_20_36_H_._HHH_b2_04743_0001_0000100005_0000002_0_0001 (protein)
chain: SSSSTEEAREVYELLRRIVELDHEGNPEEAKELAEEAEELARRGNNDVMLEQVKYLERLLNSSSS
B8: il10ra_site1_sap_25_mot_HHH_b1_03531_000000273_0001_41_54_H_._HHH_b1_06918_0001_0000100004_0000002_0_0001 (protein)
chain: SSSSSDEEIREEVEELLEEAKQISDADKRYRLLREAVELAAKLNDPELYKLVLEASRELFSSSSS
B9: il10ra_site1_sap_24_mot_HHH_b1_03613_af2_000000245_0001_1_20_H_._HHH_b2_03420_0001_0000300038_0000001_1_0001 (protein)
chain: SSSSSDFEKELEELLKELEELVREGDRERFAKVALRIIRLAFQGSDEEALQELWKLVQEYNSSSS
B10: il10ra_site1_normal_mot_HHH_b1_06837_000000150_0001_20_37_H_._HHH_b1_03571_0001_0000100005_0000001_0 (protein)
chain: SSSSDEEARRLYELARRISELDHEGNPEEARELLEELEKLAEEANNELFKFLVKHLEKVLRSSSS
B11: il10ra_site1_normal_mot_HHH_b1_05139_af2_000000007_0001_1_19_H_._HHH_b2_08055_0001_0000200014_0000001_0_af2pred_0001 (protein)
chain: SSSSDTDEEAKETIRHYLEFALELGDEEALRDALELAEKVAKILNDEELERLVREAEEELSSSSS
B12: il10ra_site1_sap_24_mot_HHH_b1_05426_000000183_0001_42_56_H_._HHH_b1_02346_af2_0001_0000200015_0000002_0_0001_af2pred_0001 (protein)
chain: SSSSTEEFIRLSEKFAKFLLEQGDPEAARFILEAAAEVARRDGNEEALERLEELLREVEEKSSSS
B13: il10ra_site1_normal_mot_HHH_b1_06994_000000193_0001_40_55_H_._HHH_b2_01117_0001_0000100003_0000002_0 (protein)
chain: SSSSDQEEELVRAAIRLLEQALKAGDEELARFLYWSAQLLAEELNDPELEKEIERVFEEGSSSSS
B14: il10ra_site1_sap_13_mot_e1dd4851c59bc1cdde016f988f6856bd_0001_1_000000200_0001_16_31_H_._HHH_b1_08578_0001_0000200030_0000001_0_0001 (protein)
chain: SSSSSEEEEYIRLALRFLRWLVEVGDEESLKRMHKAIKEMIERANNEELQELLEKVEKELSSSSS
B15: il10ra_site1_normal_mot_HHH_b2_00984_000000042_0001_1_20_H_._HHH_b1_02950_0001_0000100001_0000002_0 (protein)
chain: SSSSSDKFRELAQRALQLAFRLSDEETLQRIWELIKEYAEKGDPRIEEELEELLEELEERSSSSS
B16: il10ra_site1_sap_18_mot_HHH_b1_02397_af2_000000085_0001_39_57_H_._HHH_b2_06048_0001_0000300031_0000002_0_0001 (protein)
chain: SSSSSHDERYLELALRFLKWLLEVGDEESVKKTLRAVKHLAEQLNDEEVEEQLREVEERISSSSS
B17: il10ra_site1_normal_mot_HHH_b1_00814_af2_000000078_0001_43_57_H_._HHH_b2_03174_af2_0001_0000100007_0000001_0_af2pred_0001 (protein)
chain: SSSSSDEVEERVEELLEEAEKTSDPEEALRLLREALELALKNNDPELERLVLEVIRKLISSSSSS
B18: il10ra_site1_sap_22_mot_HHH_b1_06912_af2_000000235_0001_1_15_H_._HHH_b1_07786_af2_0001_0000200007_0000001_0_0001 (protein)
chain: SSSDDTERVQELIERAAELLREGDEERAQELIEEAEELAEELNNWAARFAVEALRRSLEALSSSS
B19: il10ra_site1_sap_20_mot_HHH_b1_07527_000000076_0001_1_15_H_._HHH_b1_03840_af2_0001_0000300020_0000001_0_0001_af2pred_0001 (protein)
chain: SSSSDEEEKRAEELAEEIKELLERGNLHEAIRLVRELIELALKLNDEELLKLALRLSREIISSSS
B20: il10ra_site1_normal_mot_HHH_b1_06816_000000239_0001_1_19_H_._HHH_b2_02034_0001_0000500019_0000002_0_af2pred_0001 (protein)
chain: SSSSSSDLEEQAEELLEEVEKIDNPQERTEVARKAIKLAVRAGNPELARRISEIATRLSSSSSSS
B21: il10ra_site1_normal_mot_HHH_b1_00999_000000080_0001_41_55_H_._HHH_b1_02251_0001_0000200023_0000002_0 (protein)
chain: SSSSDEEEERIEKLLEEVEELRKEGDEEEAFRLLQEAVRLAYELQDAELLREIWELVREIGSSSS
B22: il10ra_site1_sap_16_mot_HHH_b2_03220_af2_000000223_0001_23_40_H_._HHH_b2_07861_0001_0000300037_0000002_0_0001 (protein)
chain: SSSSSVEELLEELRELRHKVDEELEEYIERTLRFARALLKDGNPEAAETLLRLAIDSVKGSSSSS
B23: il10ra_site1_normal_mot_a6c796b944619e241e020fd597ddb6da_0001_af2_000000092_0001_15_31_H_._HHH_b2_01641_0001_0000200011_0000001_1_af2pred_0001 (protein)
chain: SSSSDEEARDILKALLYAAKLSENERAARNAVLRALELAKEEGDEELLEEIERLLEELENSSSSS
B24: il10ra_site1_sap_10_mot_HHH_b2_00277_af2_000000172_0001_1_17_H_._HHH_b2_00266_0001_0000100001_0000002_0_0001_af2pred_0001 (protein)
chain: SSSSSDAEEEVKELLEEAEQVEDPHEFAELAAKALRLAAEANDDELFREILKVIIEFRRSSSSSS
B25: il10ra_site1_normal_mot_HHH_b1_00999_000000080_0001_41_55_H_._HHH_b2_01341_0001_0000100004_0000001_0 (protein)
chain: SSSSDVEERVRELLEEAEEAAERGNPEEAARLLQEAVRLAYERQDQELLREVWEVVRRIGNSSSS
B26: il10ra_site1_normal_mot_HHH_b1_06789_af2_000000041_0001_1_20_H_._HHH_b2_03753_0001_0000100002_0000002_0 (protein)
chain: SSSSSARYLVEQALKAAELLYKQGDEEEAERAAEIAVLIARQAGDEELLEEVEKFLKELRSSSSS
B27: il10ra_site1_sap_25_mot_HHH_b1_05670_af2_000000039_0001_1_19_H_._HHH_b1_08315_0001_0000600031_0000001_0_0001 (protein)
chain: SSSDQEMRELARAALRQVEQMHELNDPEAIRFMLIALEVLYERLGDPELKEIYEEAEELLGSSSS
B28: il10ra_site1_normal_mot_HHH_b2_01310_000000089_0001_41_55_H_._HHH_b2_00697_0001_0000400036_0000001_0_af2pred_dldesign_0_af2pred (protein)
chain: SSSSSEAELEALRARVEALLEAGKPEEAVELVRKLAREAFESNDAEKLALAVELAKLIEESSSSS
B29: il10ra_site1_sap_20_mot_HHH_b1_06031_000000025_0001_40_54_H_._HHH_b2_04713_0001_0000300027_0000001_0_0001 (protein)
chain: SSSSDEAKELAEEVIEELEELQKRGNHDEVYELIEEAIKLLHELNDPEAVRLLMEFLRELFSSSS
B30: il10ra_site1_normal_mot_HHH_b1_08622_000000192_0001_23_40_H_._HHH_b1_02232_0001_0000100022_0000002_0 (protein)
chain: SSSSSAIERAVRLLLEAAKELYELGDEERAREVLEILLRYAEQSNDEEAERLIQELLEELSSSSS
B31: il10ra_site1_sap_17_mot_aff62e40800cfbf30c5099bd910ef069_0001_000000130_0001_18_32_H_._4d38eb9c16805ff794392fe48eb80f74_0001_0001_0000200012_0000001_0_0001 (protein)
chain: SSSSDDEALELSLEAFRLALHGNPEEAEEVAEEALRLARELGDERLAEVIEHMLESIRSASSSSS
B32: il10ra_site1_sap_22_mot_39ab2cb694c8b9c1dc7e65c0d672c93e_0001_000000036_0001_53_65_H_._HHH_b1_08027_0001_0000400020_0000002_0_0001 (protein)
chain: SSSSSEEEELTELLHEIMELYKKGDPRAEELVREAQELAEELGNRAAEFILRILLEALELKSSSS
B33: il10ra_site1_sap_21_mot_HHH_b1_01082_af2_000000031_0001_3_19_H_._HHH_b2_02420_0001_0000100014_0000001_0_0001_af2pred_0001 (protein)
chain: SSSSSSEKRAARLLLESAERISDPRLARAALRLAVEAAREGGDEELLEELEKVLEELEGSSSSSS
B34: il10ra_site1_normal_mot_2c1a291787c6f40772924d4e9068d803_0001_af2_000000187_0001_34_48_H_._ems_3hC_645_0001_0000400018_0000001_0_af2pred_0001 (protein)
chain: SSSEEEVFHLVAEVHLVAVKVGDPEAEEIAKELAKLAAEALIENDEEKLKEVSKLLEEFLEEFSS
B35: il10ra_site1_sap_19_mot_HHH_b1_03333_000000091_0001_1_17_H_._HHH_b1_05023_af2_0001_0000400030_0000001_0_0001_af2pred_0001 (protein)
chain: SSSSDDEEFLRLSLKFIEFAIEEGDEEAARKLIRAARQIAERLGNEEIQERLEELLERLNSSSSS
B36: il10ra_site1_normal_mot_HHH_b1_02809_af2_000000277_0001_40_57_H_._HHH_b2_04321_0001_0000300034_0000002_0_af2pred_0001 (protein)
chain: SSSSDELIQRVAELYLKASELLEEGDDEEVERIIEELKELAKEYGDEKVRLAAEFLEAMLKSSSS
B37: il10ra_site1_sap_23_mot_HHH_b2_03328_af2_000000127_0001_1_19_H_._HHH_b2_01688_0001_0000100004_0000002_0_0001 (protein)
chain: SSSSDELLQRAAELVLEALRALLHGNPEEAEELLEEALELARELGDESMARVIEDMLASTESSSS

Biological target: il10ra, Q13651
Experiment: yeast display titration

Apparent Kd, inactive:
B1 no binding seen
B2 no binding seen
B3 no binding seen
B4 no binding seen
B5 > 4.1 µM
B6 no binding seen
B7 no binding seen
B8 no binding seen
B9 no binding seen
B10 no binding seen
B11 no binding seen
B12 no binding seen
B13 no binding seen
B14 no binding seen
B15 no binding seen
B16 no binding seen
B17 no binding seen
B18 no binding seen
B19 no binding seen
B20 no binding seen
B21 no binding seen
B22 no binding seen
B23 no binding seen
B24 no binding seen
B25 no binding seen
B26 no binding seen
B27 no binding seen
B28 no binding seen
B29 no binding seen
B30 no binding seen
B31 no binding seen
B32 no binding seen
B33 no binding seen
B34 no binding seen
B35 no binding seen
B36 no binding seen
B37 no binding seen

An excerpt from the list above:
Apparent Kd, inactive:
B32 no binding seen
B33 no binding seen

From publication PMC10163288
